For this assay, the target named is T1, FLAG (DYKDDDDK)-tagged Tmem65 (UniProt Q4VAE3).
T1 sequence: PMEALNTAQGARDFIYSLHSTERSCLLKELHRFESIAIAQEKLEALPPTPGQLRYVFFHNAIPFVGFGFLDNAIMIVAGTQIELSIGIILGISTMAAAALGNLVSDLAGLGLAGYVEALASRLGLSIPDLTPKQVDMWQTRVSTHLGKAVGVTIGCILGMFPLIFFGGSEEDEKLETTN
Nature of the assay: co-IP; transfected HEK-293 cells; 500 µg soluble proteins with FLAG antibody overnight at 4 °C, protein A/G agarose; blot with HA antibody; same immunoprecipitation buffer.

These are yes or no findings as the source states them, for the method shown. Binding seen in cells or lysates may run through a third protein. Some entries that bind do so weakly or less than the wild type. Tags and fused reporters may be left off the sequences shown.

Turning to “HA (…)-tagged β1 (from UniProt P97952 19-218)”, the binding entry was “binds”.

The values are drawn from article PMC9579145.
